These are yes or no findings as the source states them, for the method shown. Binding seen in cells or lysates may run through a third protein. Some results given as binding are weak or reduced against the parent protein; the word gives no strength.
Target: PREPL(L)-Flag (prolyl-endopeptidase like, long mitochondrial isoform, Flag-tagged) (human) (UniProt Q4J6C6)
Test: co-IP

Amino acid sequences for entries named in this document (tags omitted).
UniProt Q4J6C6: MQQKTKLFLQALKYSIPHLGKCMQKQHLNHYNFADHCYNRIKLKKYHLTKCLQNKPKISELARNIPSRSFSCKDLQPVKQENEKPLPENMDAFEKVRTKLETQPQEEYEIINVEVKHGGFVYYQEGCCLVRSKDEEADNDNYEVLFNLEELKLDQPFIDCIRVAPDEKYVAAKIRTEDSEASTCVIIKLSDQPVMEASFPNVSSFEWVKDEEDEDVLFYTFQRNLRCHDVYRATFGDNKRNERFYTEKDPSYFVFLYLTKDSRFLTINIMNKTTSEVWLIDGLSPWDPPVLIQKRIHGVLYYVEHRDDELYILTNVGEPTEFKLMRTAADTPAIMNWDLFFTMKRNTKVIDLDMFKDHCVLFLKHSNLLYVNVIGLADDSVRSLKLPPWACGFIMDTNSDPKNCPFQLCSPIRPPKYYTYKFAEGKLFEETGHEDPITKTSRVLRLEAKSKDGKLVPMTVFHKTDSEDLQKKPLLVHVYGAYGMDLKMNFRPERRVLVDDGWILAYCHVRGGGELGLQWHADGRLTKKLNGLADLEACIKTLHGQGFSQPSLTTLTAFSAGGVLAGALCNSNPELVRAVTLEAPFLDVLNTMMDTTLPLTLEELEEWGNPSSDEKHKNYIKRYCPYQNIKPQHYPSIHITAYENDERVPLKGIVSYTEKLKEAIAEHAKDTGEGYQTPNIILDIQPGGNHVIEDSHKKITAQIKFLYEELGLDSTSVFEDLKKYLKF

B1: FASTKD4 (protein, UniProt Q969Z0 108-631)
chain: SHLLSEKPEDKGLLIQDAHFHQLLCLLNSQIASVWHGTLSKLLGSLYALGIPKASKELQSVEQEVRWRMRKLKYKHLAFLAESCATLSQEQHSQELLAELLTHLERRWTEIEDSHTLVTVMMKVGHLSEPLMNRLEDKCLELVEHFGPNELRKVLVMLAAQSRRSVPLLRAISYHLVQKPFSLTKDVLLDVAYAYGKLSFHQTQVSQRLATDLLSLMPSLTSGEVAHCAKSFALLKWLSLPLFEAFAQHVLNRAQDITLPHLCSVLLAFARLNFHPDQEDQFFSLVHEKLGSELPGLEPALQVDLVWALCVLQQAREAELQAVLHPEFHIQFLGGKSQKDQNTFQKLLHINATALLEYPEYSGPLLPASAVAPGPSALDRKVTPLQKELQETLKGLLGSADKGSLEVATQYGWVLDAEVLLDSDGEFLPVRDFVAPHLAQPTGSQSPPPGSKRLAFLRWEFPNFNSRSKDLLGRFVLARRHIVAAGFLIVDVPFYEWLELKSEWQKGAYLKDKMRKAVAEELAK
binding: binds

Reference: paper doi:10.1101/2023.02.11.528118
